A: 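Phenotypic screen: M. tuberculosis growth, glucose 7H9 medium, 3 days; the read-out is not stated. Compounds at 50 µM. Higher reads as more growth inhibition (inferred: compounds with an IC50 in retests scored well above the rest). Of about 69,000 compounds tested this way, about 760 (1.1%) reached 50% or more in at least one test.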
B: 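Whole-cell growth test on Mycobacterium tuberculosis, read after 4 days in a medium based on cholesterol and the lipid DPPC; the read-out is not stated. Concentration: 50 µM. The record gives no direction; compounds that gave an IC50 in retests scored well above the rest, so higher reads as more growth inhibition. About 69,000 compounds were tested under these conditions; 0.54% (about 370) showed 50% or more at least once.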

Each number is a percent effect as filed.
How 0% and 100% were set is not recorded. Most values in the screen are low, and negative values occur.
The compounds are a random part of those screened.
Two or more numbers in one place are separate tests of the same structure; such repeats can differ widely.

| Compound | A | B |
|---|---|---|
| `COCC(NC(=O)c1cc(NC(C)=O)ccc1Cl)c1ccccn1` (centres unmarked) | 3.153 and -26.18 | -0.4103 |
| `NCCc1c(-c2ccccc2)[nH][nH]c1=O.O=C(O)C(=O)O` | 5.435 | 2.402 |
| `CCOc1ccc(CN(CCOC)C(=O)c2ccncc2Cl)cc1` | 0.8236 | -7.801 |
| `O=C(c1ccccn1)N1CC[C@@H](N2CCOCC2)[C@@H]1Cc1ccccc1` | -11.96 | -2.895 |
| `O=C(COc1cccnc1)N1CCCC(n2cccn2)C1` (centres unmarked) | 1.322 | 18.03 |
| `CCN(CC)CCNCc1cc(O)c2cc(C)ccc2n1` | -22.09 and 2.764 | -8.933 |
| `CC(C)c1ncc(Cl)c(C(=O)N2CCN(C3CCCC3)CC2)n1` | -2.927 | -20.1 |
| `CO[C@H]1CCN(C2CCOCC2)C[C@@H]1Cc1ccccc1.O=C(O)C(F)(F)F` | 4.727 | 1.221 |
| `Cc1cccc(-c2nc(CN3CCc4cncnc4C3)no2)c1` | 1.384 | -20.76 |
| `O=C(Cn1nc2c(cc1=O)CCCC2)NC(C(=O)O)c1ccccc1` (centres unmarked) | 7.615 | -6.008 |
| `O=S1(=O)c2ccccc2OCC2(CCN(CCO)CC2)CN1CC1CC1` | 14.78 | -6.271 |
| `CCc1nc(C2CCCN2CCCS(=O)(=O)c2ccccc2)no1` (centres unmarked) | 5.507 | -10.97 |
| `O=C(NC1CC1)C1CCCN(c2cc(-n3cncn3)ncn2)C1` (centres unmarked) | 21.46 and -2.431 | -2.346 |
| `O=C(O)C(F)(F)F.[H][C@@]12CN(Cc3ccccc3F)C[C@H](C(=O)N3CCCO3)[C@]1([H])CCO2` | 15.09 and -0.9867 | 4.138 |
| `CN1CCC(N(Cc2ccco2)S(=O)(=O)c2ccc(Cl)cc2)CC1` | 6.933 | 5.704 |
| `c1cc2c(cc1CN1CCN(Cc3noc(C4CC4)n3)CC1)OCO2` | -0.7615 | -8.574 and -11.24 |
| `[H][C@@]12CCCO[C@]1([H])[C@H](N1CCN(C)CC1)CN2C(=O)c1ccnnc1` | 12.3 | -12.98 |
| `CN(C)C(=O)Cc1nc(CN2CCn3c(nnc3C3CC3)C2)cs1` | 1.309 | -17.52 |
| `CCCc1cc(C(=O)N2CCOC(c3nc(-c4cccs4)no3)C2)no1` (centres unmarked) | 35.9 | 36.45 |
| `CCN1CC(CN(C)Cc2nc(-c3cccc(Cl)c3)oc2C)CC1=O` (centres unmarked) | 4.476 | -4.763 |
| `CCCc1nnc(N2CCC3(CC2)CC(=O)NC(=O)C3)o1` | 21.24 | -4.491 |
| `N#Cc1cccc(OCCN2CCCC2C(=O)Nc2nccs2)c1` (centres unmarked) | 15.62 | 17.29 |
| `O=C(c1nc(=O)[nH]c2ccccc12)N1CCCC2(CCNC2)C1` (centres unmarked) | 7.267 and -22.16 | -4.971 |
| `CCn1ncc2c1C(COC)N(C(=O)Cc1cccs1)CC2` (centres unmarked) | 20.47 | 28.26 |
| `COc1c(C2CCCN2C(=O)c2cnn(C)c2C2CC2)c(C)nn1C` (centres unmarked) | 2.908 | -2.434 and 3.079 |
| `CC(c1ccccc1)N(C)CC(=O)NCCC#N` (centres unmarked) | -10.37 and -5.431 | -18.71 |
| `CCCN(Cc1ccc(OC)nc1)Cc1ccccc1OC` | -49.23 | -20 |
| `CNc1c(NCc2ccco2)c(=O)c1=O` | 14.69 | 16.4 |
| `CC(C)c1nn(C)c(N2CCOCC2)c1CNCC(=O)N(C)C` | -22.52 | 6.676 |
| `CCOc1ncccc1CNC(=O)Nc1ccc(N(C)C)nc1` | -17.83 | -21.63 |
| `COc1ccccc1OC1CCN(C(=O)c2cnc(C)cc2C)CC1` | -25.82 | 1.814 and -3.016 |
| `Cc1ccn(-c2ccccc2NCc2scnc2C)n1` | 50.6 and 27.16 | 34.04 |
| `CCn1cc(NC(=O)C2CCN(Cc3nc(C)c(C)o3)CC2)cn1` | 0.4048 | -14.41 |
| `O=S(=O)(NCCNc1ccc(-n2cccc2)nn1)c1cccs1` | 63.08 and 64.16 | 68.32 |
| `CC(NC(=O)Nc1nccs1)C(=O)NC1CCCC1` (centres unmarked) | -6.766 | -7.454 |
| `Cc1cn2c(n1)CCC(NC(=O)c1ccc(OCC3CC3)nc1)C2` (centres unmarked) | -33.89 and -6.664 | -11.02 |
| `Cc1ccccc1-n1cnc(Cl)c1CO` | -16.97 | -25.11 and -16.22 |
| `NC(=O)[C@@H]1Cc2ccccc2CN1CCc1cccs1` | -38.96 | -21.44 |
| `O=S(=O)(Cc1ccon1)N1CCN(c2ccncc2Cl)CC1` | -0.4371 | 12.54 |
| `Cc1nc(C)n(CC2CCCN(CCC(=O)N3CCOCC3)C2)n1` (centres unmarked) | -4.821 | 13.94 |
| `COCCSCC(=O)NCc1ccc(N(C)C)cc1` | 23.35 | -3.198 |
| `Cn1c(NCCC(=O)N2CCCC2)c(C#N)c(=O)n(C)c1=O` | -28.59 | -39.97 |
| `NC(=O)C1CCN(C(=O)CSC2CCCc3ccccc32)CC1` (centres unmarked) | 34.09 | 8.446 |
| `CN(Cc1cnn(C)c1)C(=O)c1ccc(Cl)c(N2CCNC2=O)c1` | 7.916 | -4.667 |
| `Cc1ccc(S(=O)(=O)c2ncccc2CN2CCN(CCO)CC2)cc1` | -5.002 | -7.233 |
| `O=C(NCCc1c[nH]cn1)c1ccc(S(=O)(=O)NC2CCCC2)cc1` | 0.8346 | -10.61 |
| `Cc1cccc2c1nc(CCO)n2-c1ccc(C(=O)N2CCOCC2)o1` | 18.81 | 5.294 |
| `CN(C)c1nc2c(c(N3CCC4(CCCNC4=O)C3)n1)CCCC2` (centres unmarked) | 19.31 | 20.49 |
| `[H][C@]12CC[C@]([H])(CN(c3nc(C)nc4ccsc34)C1)[C@@H]2OC` | -13.78 | -16.91 |
| `O=C1CCCC2=C1C(c1ccc(F)cc1F)Nc1nonc1N2` (centres unmarked) | -21.56 and 6.535 | -28.65 |
| `[H][C@@]12C[C@H](C(=O)N3CCCC3)[C@@]([H])(CN(S(=O)(=O)CCC)C1)O2` | 2.1 | -18.5 |
| `CCCc1nc(CN2CCN(C(C)c3nc(C4CC4)no3)CC2)no1` (centres unmarked) | 8.679 | 0.5145 |
| `CC(C)c1noc(C2CCCN2S(=O)(=O)N2CCCCCC2)n1` (centres unmarked) | -11.43 | -4.352 |
| `COCCS(=O)(=O)N(Cc1cscn1)c1ccccc1` | 2.42 | -15.78 |
| `CCc1ccccc1CNC(=O)CNC(=O)C(C)(C)C` | -0.3959 | 17.9 |
| `Cc1cc(NC(=O)c2nc(N3CCCC3)ncc2Cl)ccc1Br` | 1.913 | -11.33 |
| `COc1ccccc1CNC(=O)C[S+]([O-])Cc1cc(C)on1` (centres unmarked) | 22.04 | -0.7572 |
| `CCn1cc(Cl)c(C(=O)NCCCO)n1` | 3.49 | 16.96 |
| `C[S+]([O-])CCNC(=O)N1CCN(c2cc(F)ccc2F)CC1` (centres unmarked) | -18.33 | -20.35 |
| `CCn1cc(CNCC(c2ccc(C)s2)N2CCOCC2)cn1` (centres unmarked) | -2.161 and -6.852 | -1.433 |

For reference, 5 entries once more:

Compound,A,B
O=C(c1ccccn1)N1CC[C@@H](N2CCOCC2)[C@@H]1Cc1ccccc1,-11.96,-2.895
CCN(CC)CCNCc1cc(O)c2cc(C)ccc2n1,-22.09 and 2.764,-8.933
COCCS(=O)(=O)N(Cc1cscn1)c1ccccc1,2.42,-15.78
CCOc1ncccc1CNC(=O)Nc1ccc(N(C)C)nc1,-17.83,-21.63
Cc1cn2c(n1)CCC(NC(=O)c1ccc(OCC3CC3)nc1)C2 (centres unmarked),-33.89 and -6.664,-11.02

The values are deposited in ChEMBL (CHEMBL3988442, “University of Dundee, Small-Polar-MMV Screening Library” (2021)).